Experimental data taken from the supplement of paper PMC7661543.
Differences between knockout arms are mostly noise.

System: BT-20
Test: relative cell number vs DMSO control (72 h) (% of DMSO); higher = less growth inhibition (more cells)
Method: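 QMAP-Seq: a pool of 5 breast cancer cell lines (ZR-75-1, SKBR3, HCC-38, MDA-MB-231, BT-20), each carrying 12 doxycycline-inducible Cas9 sgRNA perturbations (11 knockouts plus non-targeting sgNT), was treated with compounds for 72 h at four 10-fold doses (10 nM-10 uM or 1 nM-1 uM range). Barcodes were amplified and sequenced, and cell number was interpolated from 293T spike-in standard curves. The result is expressed as % of the median of DMSO wells. Two biological replicates.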

Cc1ccc(NC(=O)c2ccc(CN3CCN(C)CC3)cc2)cc1Nc1nc(-c2cccnc2)cs1 [Masitinib]
Conditions | relative cell number
sgRNA knockout: sgATF3, 10 nM | 91.1
sgRNA knockout: sgATF3, 100 nM | 82.6
sgRNA knockout: sgATF3, 1000 nM | 87.7
sgRNA knockout: sgATF3, 10000 nM | 77.4
sgRNA knockout: sgATF4, 10 nM | 97.4
sgRNA knockout: sgATF4, 100 nM | 98.8
sgRNA knockout: sgATF4, 1000 nM | 84.3
sgRNA knockout: sgATF4, 10000 nM | 86.1
sgRNA knockout: sgATF6, 10 nM | 103
sgRNA knockout: sgATF6, 100 nM | 90.6
sgRNA knockout: sgATF6, 1000 nM | 88.8
sgRNA knockout: sgATF6, 10000 nM | 67.8
sgRNA knockout: sgATG7, 10 nM | 106
sgRNA knockout: sgATG7, 100 nM | 98
sgRNA knockout: sgATG7, 1000 nM | 88.8
sgRNA knockout: sgATG7, 10000 nM | 99.3
sgRNA knockout: sgERN1, 10 nM | 100
sgRNA knockout: sgERN1, 100 nM | 90.1
sgRNA knockout: sgERN1, 1000 nM | 92.4
sgRNA knockout: sgERN1, 10000 nM | 103
sgRNA knockout: sgHSF1, 10 nM | 106
sgRNA knockout: sgHSF1, 100 nM | 93.3
sgRNA knockout: sgHSF1, 1000 nM | 87.7
sgRNA knockout: sgHSF1, 10000 nM | 89.1
sgRNA knockout: sgHSF2, 10 nM | 88.299
sgRNA knockout: sgHSF2, 100 nM | 86.9
sgRNA knockout: sgHSF2, 1000 nM | 82.3
sgRNA knockout: sgHSF2, 10000 nM | 104
sgRNA knockout: sgKEAP1, 10 nM | 90.8
sgRNA knockout: sgKEAP1, 100 nM | 94.6
sgRNA knockout: sgKEAP1, 1000 nM | 83.2
sgRNA knockout: sgKEAP1, 10000 nM | 90.1
sgRNA knockout: sgNFE2L2, 10 nM | 91.9
sgRNA knockout: sgNFE2L2, 100 nM | 92
sgRNA knockout: sgNFE2L2, 1000 nM | 85.8
sgRNA knockout: sgNFE2L2, 10000 nM | 81.1
sgRNA knockout: sgSLC35F2, 10 nM | 91.9
sgRNA knockout: sgSLC35F2, 100 nM | 87.4
sgRNA knockout: sgSLC35F2, 1000 nM | 90.9
sgRNA knockout: sgSLC35F2, 10000 nM | 92.1
sgRNA knockout: sgXBP1, 10 nM | 108
sgRNA knockout: sgXBP1, 100 nM | 94.8
sgRNA knockout: sgXBP1, 1000 nM | 99.3
sgRNA knockout: sgXBP1, 10000 nM | 97.7

O=c1[nH]cc(F)c(=O)[nH]1 [5-Fluorouracil]
Conditions | relative cell number
sgRNA knockout: sgATF3, 10 nM | 104
sgRNA knockout: sgATF3, 100 nM | 104
sgRNA knockout: sgATF3, 1000 nM | 91.3
sgRNA knockout: sgATF3, 10000 nM | 70.2
sgRNA knockout: sgATF4, 10 nM | 110
sgRNA knockout: sgATF4, 100 nM | 109
sgRNA knockout: sgATF4, 1000 nM | 88.8
sgRNA knockout: sgATF4, 10000 nM | 56.4
sgRNA knockout: sgATF6, 10 nM | 90.7
sgRNA knockout: sgATF6, 100 nM | 111
sgRNA knockout: sgATF6, 1000 nM | 95.3
sgRNA knockout: sgATF6, 10000 nM | 60.8
sgRNA knockout: sgATG7, 10 nM | 107
sgRNA knockout: sgATG7, 100 nM | 126
sgRNA knockout: sgATG7, 1000 nM | 103
sgRNA knockout: sgATG7, 10000 nM | 61.93
sgRNA knockout: sgERN1, 10 nM | 94.5
sgRNA knockout: sgERN1, 100 nM | 107
sgRNA knockout: sgERN1, 1000 nM | 80
sgRNA knockout: sgERN1, 10000 nM | 70.7
sgRNA knockout: sgHSF1, 10 nM | 93.1
sgRNA knockout: sgHSF1, 100 nM | 107
sgRNA knockout: sgHSF1, 1000 nM | 91.1
sgRNA knockout: sgHSF1, 10000 nM | 72.5
sgRNA knockout: sgHSF2, 10 nM | 82
sgRNA knockout: sgHSF2, 100 nM | 99.846
sgRNA knockout: sgHSF2, 1000 nM | 86.1
sgRNA knockout: sgHSF2, 10000 nM | 63.3
sgRNA knockout: sgKEAP1, 10 nM | 84.6
sgRNA knockout: sgKEAP1, 100 nM | 102
sgRNA knockout: sgKEAP1, 1000 nM | 96.2
sgRNA knockout: sgKEAP1, 10000 nM | 54.5
sgRNA knockout: sgNFE2L2, 10 nM | 84.7
sgRNA knockout: sgNFE2L2, 100 nM | 103
sgRNA knockout: sgNFE2L2, 1000 nM | 81.5
sgRNA knockout: sgNFE2L2, 10000 nM | 54.8
sgRNA knockout: sgSLC35F2, 10 nM | 99.3
sgRNA knockout: sgSLC35F2, 100 nM | 95.3
sgRNA knockout: sgSLC35F2, 1000 nM | 91.9
sgRNA knockout: sgSLC35F2, 10000 nM | 62.8
sgRNA knockout: sgXBP1, 10 nM | 94
sgRNA knockout: sgXBP1, 100 nM | 114
sgRNA knockout: sgXBP1, 1000 nM | 105
sgRNA knockout: sgXBP1, 10000 nM | 59.5

O=C(NOCC(O)CO)c1cc(Br)c(F)c(F)c1Nc1ccc(I)cc1F (configuration not stated)
Conditions | relative cell number
sgRNA knockout: sgATF3, 10 nM | 96.5
sgRNA knockout: sgATF3, 100 nM | 83.5
sgRNA knockout: sgATF3, 1000 nM | 79.4
sgRNA knockout: sgATF3, 10000 nM | 89.3
sgRNA knockout: sgATF4, 10 nM | 104
sgRNA knockout: sgATF4, 100 nM | 97.2
sgRNA knockout: sgATF4, 1000 nM | 91.7
sgRNA knockout: sgATF4, 10000 nM | 85.8
sgRNA knockout: sgATF6, 10 nM | 95.7
sgRNA knockout: sgATF6, 100 nM | 85.7
sgRNA knockout: sgATF6, 1000 nM | 85.5
sgRNA knockout: sgATF6, 10000 nM | 93.8
sgRNA knockout: sgATG7, 10 nM | 89.2
sgRNA knockout: sgATG7, 100 nM | 84.43
sgRNA knockout: sgATG7, 1000 nM | 80.6
sgRNA knockout: sgATG7, 10000 nM | 89.1
sgRNA knockout: sgERN1, 10 nM | 103
sgRNA knockout: sgERN1, 100 nM | 89.5
sgRNA knockout: sgERN1, 1000 nM | 84.6
sgRNA knockout: sgERN1, 10000 nM | 90.2
sgRNA knockout: sgHSF1, 10 nM | 93.9
sgRNA knockout: sgHSF1, 100 nM | 88.9
sgRNA knockout: sgHSF1, 1000 nM | 85.7
sgRNA knockout: sgHSF1, 10000 nM | 84
sgRNA knockout: sgHSF2, 10 nM | 105
sgRNA knockout: sgHSF2, 100 nM | 99.5
sgRNA knockout: sgHSF2, 1000 nM | 83.3
sgRNA knockout: sgHSF2, 10000 nM | 88
sgRNA knockout: sgKEAP1, 10 nM | 94.3
sgRNA knockout: sgKEAP1, 100 nM | 85.2
sgRNA knockout: sgKEAP1, 1000 nM | 81.9
sgRNA knockout: sgKEAP1, 10000 nM | 87.5
sgRNA knockout: sgNFE2L2, 10 nM | 105
sgRNA knockout: sgNFE2L2, 100 nM | 106
sgRNA knockout: sgNFE2L2, 1000 nM | 84.4
sgRNA knockout: sgNFE2L2, 10000 nM | 99.2
sgRNA knockout: sgSLC35F2, 10 nM | 89.7
sgRNA knockout: sgSLC35F2, 100 nM | 86.6
sgRNA knockout: sgSLC35F2, 1000 nM | 92.4
sgRNA knockout: sgSLC35F2, 10000 nM | 92.8
sgRNA knockout: sgXBP1, 10 nM | 98.1
sgRNA knockout: sgXBP1, 100 nM | 86.89
sgRNA knockout: sgXBP1, 1000 nM | 92.9
sgRNA knockout: sgXBP1, 10000 nM | 89.1
